No constants are given. Whether binding was seen depends on the method and setting. Binding seen in cells or lysates may run through a third protein. Some binding calls cover weakened binding; strength is not graded here.

The chains behind the UniProt entries cited, without tags or fusion partners.
UniProt Q5TZA2: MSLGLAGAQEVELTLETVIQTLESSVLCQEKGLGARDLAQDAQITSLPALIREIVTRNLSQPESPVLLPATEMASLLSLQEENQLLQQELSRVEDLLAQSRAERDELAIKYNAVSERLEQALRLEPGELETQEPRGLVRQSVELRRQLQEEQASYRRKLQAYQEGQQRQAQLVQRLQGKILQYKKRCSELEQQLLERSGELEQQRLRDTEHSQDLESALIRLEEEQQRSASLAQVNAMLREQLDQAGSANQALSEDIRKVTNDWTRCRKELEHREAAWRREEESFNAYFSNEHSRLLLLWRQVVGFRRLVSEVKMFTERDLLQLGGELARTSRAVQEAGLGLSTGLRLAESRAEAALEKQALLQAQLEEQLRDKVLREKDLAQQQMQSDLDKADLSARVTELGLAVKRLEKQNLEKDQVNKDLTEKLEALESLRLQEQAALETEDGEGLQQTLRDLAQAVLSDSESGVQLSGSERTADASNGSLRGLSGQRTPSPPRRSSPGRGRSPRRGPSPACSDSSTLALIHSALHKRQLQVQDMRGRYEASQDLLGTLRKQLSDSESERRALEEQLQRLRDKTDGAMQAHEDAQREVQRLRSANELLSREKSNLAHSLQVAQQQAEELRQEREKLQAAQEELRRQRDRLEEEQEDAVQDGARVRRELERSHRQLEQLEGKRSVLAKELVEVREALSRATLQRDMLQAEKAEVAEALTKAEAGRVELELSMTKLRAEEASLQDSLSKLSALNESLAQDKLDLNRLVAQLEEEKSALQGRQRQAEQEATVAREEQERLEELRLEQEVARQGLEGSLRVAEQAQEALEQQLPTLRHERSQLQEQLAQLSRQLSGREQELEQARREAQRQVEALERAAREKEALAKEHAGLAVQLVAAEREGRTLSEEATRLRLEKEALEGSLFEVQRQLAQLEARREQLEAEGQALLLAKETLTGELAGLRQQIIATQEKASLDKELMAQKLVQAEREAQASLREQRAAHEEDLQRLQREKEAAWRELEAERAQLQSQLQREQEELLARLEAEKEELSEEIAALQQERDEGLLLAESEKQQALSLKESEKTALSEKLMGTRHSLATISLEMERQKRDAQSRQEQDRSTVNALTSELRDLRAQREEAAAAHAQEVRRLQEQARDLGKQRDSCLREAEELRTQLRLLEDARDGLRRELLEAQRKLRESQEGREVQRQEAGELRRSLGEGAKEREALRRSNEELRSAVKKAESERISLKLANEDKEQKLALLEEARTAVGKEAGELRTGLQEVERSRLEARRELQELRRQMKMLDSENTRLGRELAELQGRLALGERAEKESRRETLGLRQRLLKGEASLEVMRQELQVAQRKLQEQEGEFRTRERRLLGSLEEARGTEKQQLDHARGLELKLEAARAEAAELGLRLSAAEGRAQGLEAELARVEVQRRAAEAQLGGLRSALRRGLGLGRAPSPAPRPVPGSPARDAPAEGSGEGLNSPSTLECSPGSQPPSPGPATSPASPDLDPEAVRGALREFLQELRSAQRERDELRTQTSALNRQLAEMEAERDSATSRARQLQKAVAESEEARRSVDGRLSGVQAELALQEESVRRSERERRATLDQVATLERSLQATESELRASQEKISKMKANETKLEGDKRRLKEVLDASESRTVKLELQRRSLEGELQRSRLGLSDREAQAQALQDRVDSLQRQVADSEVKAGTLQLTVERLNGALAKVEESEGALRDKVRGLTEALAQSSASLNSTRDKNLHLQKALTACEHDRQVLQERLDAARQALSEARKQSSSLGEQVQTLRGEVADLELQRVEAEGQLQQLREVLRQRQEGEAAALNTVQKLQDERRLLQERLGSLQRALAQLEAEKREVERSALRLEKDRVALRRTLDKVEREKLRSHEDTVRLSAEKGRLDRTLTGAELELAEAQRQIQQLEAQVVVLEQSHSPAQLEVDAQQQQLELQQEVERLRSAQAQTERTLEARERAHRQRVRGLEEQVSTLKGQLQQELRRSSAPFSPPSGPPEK

2 molecules from paper doi:10.1101/719625 can be followed below.

This experiment addresses ZikV-NS5-GFP (Zika virus). Nature of the experiment: pull-down.

For the molecule “rootlet coiled-coil protein (CROCC/Rootletin) (from UniProt Q5TZA2 1-2017)”, the binding result was “binds”.

B1: ADP ribosylation factor-like 2-binding protein (ARL2BP/BART) (protein, UniProt Q9Y2Y0 1-163)
chain: MDALEGESFALSFSSASDAEFDAVVGYLEDIIMDDEFQLLQRNFMDKYYLEFEDTEENKLIYTPIFNEYISLVEKYIEEQLLQRIPEFNMAAFTTTLQHHKDEVAGDIFDMLLTFTDFLAFKEMFLDYRAEKEGRGLDLSSGLVVTSLCKSSSLPASQNNLRH
For the molecule B1, the binding entry is “binds”.
